Data taken from patent publication US20250262279A1, “DOSE REGIMEN FOR LONG-ACTING GLP1/GLUCAGON RECEPTOR AGONISTS” (Boehringer Ingelheim International GmbH, priority 2021, published 2025).
Part of at least one peptide drawing is inferred or uncertain, most often the ends.

Tests used:
GCGR = conditions: as disclosed in WO2015/055801; cited from earlier work
[1] = Example 3 Phase II study in type 2 diabetes: HbA1c change; assay type: in vivo, human
[2] = Example 1: body weight change from baseline; assay type: in vivo, human; conditions: for placebo-corrected maximum % decrease of mean body weight: Ex.1 Part A, 6 weeks; for maximum placebo corrected weight loss: Ex.1 Part B
[3] = Example 3: body weight and waist circumference; assay type: in vivo, human; conditions: for patients with ≥5% body weight loss from baseline / proportion of patients with ≥10% body weight loss from baseline: 16 weeks
GLP1R = conditions: as disclosed in WO2015/055801; cited from earlier work
[4] = Ex.3 Compound I 1.8 mg once weekly, Week 17
[5] = Ex.3 Compound I 2.7 mg once weekly, Week 17
[6] = Ex.3 Compound I 1.2 biw (2.4) mg, Week 17
[7] = Ex.3 Compound I 1.8 biw (3.6) mg, Week 17
[8] = Ex.3 Compound I 1.2 biw (2.4) mg
[9] = Ex.3 Compound I 1.8 biw (3.6) mg

In the case of `CC[C@H](C)[C@H](NC(=O)[C@H](Cc1ccccc1)NC(=O)[C@H](CC(=O)O)NC(=O)[C@H](CCCCN)NC(=O)[C@H](C)NC(=O)[C@H](C)NC(=O)[C@H](CCCNC(=N)N)NC(=O)[C@H](CCC(=O)O)NC(=O)[C@H](CC(=O)O)NC(=O)[C@H](CC(C)C)NC(=O)[C@H](Cc1ccc(O)cc1)NC(=O)[C@H](CCCCN)NC(=O)[C@H](CO)NC(=O)[C@H](Cc1ccc(O)cc1)NC(=O)[C@H](CC(=O)O)NC(=O)[C@H](CO)NC(=O)[C@@H](NC(=O)[C@H](Cc1ccccc1)NC(=O)[C@@H](NC(=O)CNC(=O)[C@H](CCC(N)=O)NC(=O)C1(NC(=O)[C@@H](N)Cc2c[nH]cn2)CCC1)[C@@H](C)O)[C@@H](C)O)C(=O)N[C@@H](CCCCNC(=O)CNC(=O)CNC(=O)[C@H](CO)NC(=O)CNC(=O)[C@H](CO)NC(=O)CNC(=O)CC[C@H](NC(=O)CCCCCCCCCCCCCCCCC(=O)O)C(=O)O)C(=O)N[C@@H](Cc1c[nH]c2ccccc12)C(=O)N[C@@H](CC(C)C)C(=O)N[C@@H](CCC(=O)O)C(=O)N[C@@H](CO)C(=O)N[C@@H](C)C(N)=O` [Compound I], the “GCGR agonism (capability to stimulate intracellular cAMP formation)” value (GCGR) is given as “dual GLP1R and GCGR agonist”, the “mean absolute decrease in HbA1c from baseline (SD), descriptive” value (from here on “mean absolute decrease … (SD), descriptive”) [1, 4] is given as −1.79 (SD 0.92) % and the “absolute decrease from baseline in HbA1c, adjusted mean MMRM estimate” value ([1]; Ex.3 Compound I 1.8 mg once weekly, Week 17, 95% CI −1.94, −1.49) is given as −1.72%. For the same compound, the “mean absolute decrease … (SD), descriptive” value [1, 5] was −1.67 (0.78) %, the “mean absolute decrease … (SD), descriptive” value [1, 6] was −1.68 (0.90) % and the “mean absolute decrease … (SD), descriptive” value [1, 7] was −1.79 (0.76) %. For the same compound, the “dose at which predicted dose-response curve of absolute HbA1c change reached plateau (MCP-Mod)” value ([1]; Ex.3 after 16 weeks, once weekly dose) was 1.8 mg, the “placebo-corrected maximum % decrease of mean body weight” value (shortened to “placebo-corrected maximum % decrease”) ([2]; Daily, Day 43 (EOT)) was −5.79±1.05% and the “placebo-corrected maximum % decrease” value ([2]; Weekly 1, Day 43 (EOT)) was −4.22±1.02%. The “placebo-corrected maximum % decrease” value ([2]; Weekly 2, Day 43 (EOT)) was −4.92±1.00%, the “placebo-corrected maximum % decrease” value ([2]; Weekly 3, Day 43 (EOT)) was −4.48±1.02% and the “maximum placebo corrected weight loss” value ([2]; Weekly 4, Day 113, 16 weeks) was −9.03±1.63%. The “maximum placebo corrected weight loss” value ([2]; Weekly 5, Day 113, 16 weeks) was −11.2±1.64%, the “maximum placebo corrected weight loss” value ([2]; Weekly 6 (twice weekly), Day 113, 16 weeks) was −13.8±1.60% and the “mean relative body weight loss from baseline (SD), descriptive” value [3, 4] was −6.63 (SD 5.13) %. The “mean relative body weight loss from baseline (SD), descriptive” value [3, 5] was −6.68 (4.05) %, the “patients with ≥5% body weight loss from baseline” value [3, 8] was “More than 50%” and the “proportion of patients with ≥10% body weight loss from baseline” value [3, 8] was “Approximately one-fourth”. The “mean relative body weight loss from baseline (SD), descriptive” value [3, 6] was −7.16 (6.06) %, the “patients with ≥5% body weight loss from baseline” value [3, 9] was “More than 50%” and the “proportion of patients with ≥10% body weight loss from baseline” value [3, 9] was “one-third”. For the same compound, the “mean relative body weight loss from baseline (SD), descriptive” value [3, 7] was −8.95 (5.33) %, the “absolute body weight loss from baseline, adjusted mean” value ([3]; Ex.3 Compound I 1.8 biw (3.6) mg, Week 17, 95% CI −9.68, −7.08) was -8.38 kg and the “relative body weight loss from baseline, adjusted mean MMRM estimate” value ([3]; Ex.3 Compound I 1.8 biw (3.6) mg, Week 17, 95% CI −10.06, −7.30) was −8.68%. For the same compound, the “decrease in absolute waist circumference from baseline, adjusted mean MMRM estimate” value ([3]; Ex.3 Compound I 1.8 biw (3.6) mg, Week 17, 95% CI −13.84, −7.14) was −10.49 cm and the “GLP1R agonism (capability to stimulate intracellular cAMP formation)” value (GLP1R) was “dual GLP1R and GCGR agonist”.
